Assay [1] concerns the target Endogenous epidermal growth factor receptor (EGFR) (human (endogenous in A549)) (UniProt P00533). Kind of assay: proximity ligation; Duolink flowPLA read by flow cytometry; fixed, permeabilized A549 cells, serum-starved, with or without EGF. For orientation: Flow cytometry measures light scatter and fluorescence of single cells or particles in a stream.
Assay [2] shares this target. Kind of assay: proximity ligation; Duolink in situ PLA read by confocal imaging; fixed, permeabilized nonengineered WT A549 cells, serum-starved, with or without EGF (5 min); PLA foci per cell.

Protein sequences, listed by entry. Tags and fused reporters are not part of them.
UniProt P62330: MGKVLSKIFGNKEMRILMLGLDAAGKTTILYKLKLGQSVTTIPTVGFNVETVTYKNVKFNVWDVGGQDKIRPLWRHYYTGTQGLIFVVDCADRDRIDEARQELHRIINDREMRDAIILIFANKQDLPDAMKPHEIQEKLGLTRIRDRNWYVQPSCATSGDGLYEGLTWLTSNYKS

No constants are given. Whether binding was seen depends on the method and setting. In cells and extracts the contact can be indirect. Some entries that bind do so weakly or less than the wild type.

“ARF6, an ADP-ribosylation factor (from UniProt P62330 1-175)”: the binding entry in assay [1] is “binds”.

Consider “Protein tyrosine phosphatase transmembrane receptor (PTPRF) (from UniProt P10586 30-1907)”, for which the binding entry in assay [1] and in assay [2] was “binds” throughout.

In the case of β-catenin (from UniProt P35222 1-781), in assay [1], the binding result is “binds”.

B1: DNM1 (protein, UniProt Q05193 1-864)
chain: MGNRGMEDLIPLVNRLQDAFSAIGQNADLDLPQIAVVGGQSAGKSSVLENFVGRDFLPRGSGIVTRRPLVLQLVNATTEYAEFLHCKGKKFTDFEEVRLEIEAETDRVTGTNKGISPVPINLRVYSPHVLNLTLVDLPGMTKVPVGDQPPDIEFQIRDMLMQFVTKENCLILAVSPANSDLANSDALKVAKEVDPQGQRTIGVITKLDLMDEGTDARDVLENKLLPLRRGYIGVVNRSQKDIDGKKDITAALAAERKFFLSHPSYRHLADRMGTPYLQKVLNQQLTNHIRDTLPGLRNKLQSQLLSIEKEVEEYKNFRPDDPARKTKALLQMVQQFAVDFEKRIEGSGDQIDTYELSGGARINRIFHERFPFELVKMEFDEKELRREISYAIKNIHGIRTGLFTPDMAFETIVKKQVKKIREPCLKCVDMVISELISTVRQCTKKLQQYPRLREEMERIVTTHIREREGRTKEQVMLLIDIELAYMNTNHEDFIGFANAQQRSNQMNKKKTSGNQDEILVIRKGWLTINNIGIMKGGSKEYWFVLTAENLSWYKDDEEKEKKYMLSVDNLKLRDVEKGFMSSKHIFALFNTEQRNVYKDYRQLELACETQEEVDSWKASFLRAGVYPERVGDKEKASETEENGSDSFMHSMDPQLERQVETIRNLVDSYMAIVNKTVRDLMPKTIMHLMINNTKEFIFSELLANLYSCGDQNTLMEESAEQAQRRDEMLRMYHALKEALSIIGDINTTTVSTPMPPPVDDSWLQVQSVPAGRRSPTSSPTPQRRAPAVPPARPGSRGPAPGPPPAGSALGGAPPVPSRPGASPDPFGPPPQVPSRPNRAPPGVPSRSGQASPSRPESPRPPFDL
As for B1, in assay [1], the binding entry is on record as “binds”.

Values taken from PMC12858401.
